Part of at least one peptide drawing is inferred or uncertain, most often the ends. Where a SMILES comes first, the peptide text is derived from it. [ ]: non-standard residue; d: D form. d(pGlu) = O=C1CC[C@H](C(=O)O)N1
System: PBLs on cytokine stimulated HDBECs
Conditions: for % Inhibition (0.3 nM): 0.3 nM peptide; for % Inhibition (0.3 nM) / % Inhibition (3 nM): inhibition of PBL transmigration (as a percentage of adherent cells); for % Inhibition (3 nM): 3 nM peptide

Row | SMILES | % Inhibition (0.3 nM) [%] | % Inhibition (3 nM) [%] | effectiveness in inhibiting PBL transmigration compared with PEPITEM (% Inhibition at 0.3 and/or 3 nM) (PEPITEM 41.90) | potency at inhibiting the transmigration of T cells compared with PEPITEM (IC50) (PEPITEM IC50 0.02)
1 | CC(C)[C@@H](NC(=O)[C@H](N)[C@H](C)O)C(=O)N[C@H](CO)C(N)=O (relative stereo) [SEQ ID NO. 11, H-T*V*S*-NH2] | 56.89 | 58.74 | more effective | 
2 | CC(=O)N[C@H](CCC(N)=O)C(=O)NCC(=O)N[C@H](C)C(N)=O [SEQ ID NO. 26, Ac-Q*GA*-NH2] | 33.50 |  |  | more potent
3 | C[C@@H](NC(=O)CNC(=O)[C@H]1CCC(=O)N1)C(N)=O [SEQ ID NO. 28, pE*GA*-NH2] ([d(pGlu)]-Gly-[dA]-NH2) | 46.18 | 50.93 |  | 

Source: patent US20250361271A1, “PEPTIDE AGONIST” (THE UNIVERSITY OF BIRMINGHAM, priority 2022, published 2025)
